# Source: patent US20110091875A1, “THREE-COMPONENT GENE EXPRESSION REPORTING SYSTEM FOR MAMMALIAN CELLS AND APPLICATIONS OF THE SAME” (National Chung Cheng University, priority 2009, published 2011)
# At least one compound was matched to its structure with a doubt left.
# Test system: SC6 cells
# Assay: Doxycycline verification of stable clones: EGFP expression in SC6 cells
# Type: cell-based, human
# Settings: screening medium with 1 μg/mL doxycycline, 16-24 hours, compared to control without doxycycline
smiles,measurement,value
C[C@H]1c2cccc(O)c2C(=O)C2=C(O)[C@]3(O)C(=O)C(C(N)=O)=C(O)[C@@H](N(C)C)[C@@H]3[C@@H](O)[C@@H]21 [doxycycline],expression of EGFP,able to express EGFP
